Library screen at single concentrations

Values are the deposited “Percent Effect”, in %.
The controls that fix the scale are not given in the record; negative values are as filed.
The compounds are a random part of those screened.
Two or more numbers in one place are separate tests of the same structure; such repeats can differ widely.

Mtb cholesterol medium: 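Whole-cell growth test on Mycobacterium tuberculosis, read after 4 days in a medium based on cholesterol and the lipid DPPC; the read-out is not stated. Concentration: 50 µM. Direction is inferred from retests: higher values go with more growth inhibition. Size under these conditions: about 69,000 compounds, about 370 of them at 50% or above in at least one test.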
Mtb glucose medium: 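Growth of Mycobacterium tuberculosis over 3 days (7H9 medium with glucose and tyloxapol); the read-out is not stated. Concentration: 50 µM. Higher reads as more growth inhibition (inferred: compounds with an IC50 in retests scored well above the rest). Size under these conditions: about 69,000 compounds, about 760 of them at 50% or above in at least one test.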

* CNC(=O)NC(=O)CCN1CCN(c2nccs2)CC1 | Mtb cholesterol medium: -10.5%; Mtb glucose medium: 16.15%
* CCc1cn[nH]c1C1CCCN(C(=O)c2noc(C)c2COC)C1 (centres unmarked) | Mtb cholesterol medium: -5.929%; Mtb glucose medium: -19.3%
* O=C(O)C(F)(F)F.O=C(O)C(F)(F)F.O=C(O)C(F)(F)F.[H][C@@]12CO[C@@H](CN3CCN(C)CC3)[C@]1([H])CCN(Cc1cccc(F)c1)C2 | Mtb cholesterol medium: 3.935%; Mtb glucose medium: 9.621%
* COCC1CCCN(CCCc2cccc(OC)c2)C1 (centres unmarked) | Mtb cholesterol medium: 4.37%; Mtb glucose medium: -17.81%
* Cc1nsc(NCCNS(=O)(=O)c2ccccc2)n1 | Mtb cholesterol medium: 6.611%; Mtb glucose medium: 0.8589% & 14.24%
* CCOCCCNC(=O)Cc1cccs1 | Mtb cholesterol medium: 4.624%; Mtb glucose medium: 15.62%
* Cc1noc(C)c1C(=O)NCc1ccc(N2CCCCCC2)nc1 | Mtb cholesterol medium: -9.879%; Mtb glucose medium: -12.29%
* CCc1nccn1C1CCCN(C(=O)c2csc(C3CC3)n2)C1 (centres unmarked) | Mtb cholesterol medium: -19.94%; Mtb glucose medium: -22.63%
* CCC(OC)C(=O)NCC1CCN(c2cnn(C)c(=O)c2)CC1 (centres unmarked) | Mtb cholesterol medium: -15.63% & -20.84%; Mtb glucose medium: -24.6%
* O=C(NCCOc1ncc(Cl)cc1Cl)c1ccncc1F | Mtb cholesterol medium: 38.52% & 18.35%; Mtb glucose medium: 15.05%
* CCc1nc(C2CCCN(C(=O)C3=NN(CC)C(=O)CC3)C2)no1 (centres unmarked) | Mtb cholesterol medium: -7.302%; Mtb glucose medium: -12.85% & 1.318%
* CN(C)c1ccc(NC(=O)N2CCCCCC2c2ccncc2)cn1 (centres unmarked) | Mtb cholesterol medium: 7.622%; Mtb glucose medium: -9.156%
* Cc1cc(NCCN2CCNC2=O)nc2cc3c(cc12)CCC3 | Mtb cholesterol medium: 12.46%; Mtb glucose medium: 22.67%
* Cc1nn(-c2ncccn2)c2c1C(c1cnn(C)c1)SCC(=O)N2 (centres unmarked) | Mtb cholesterol medium: 21.37%; Mtb glucose medium: 13.65%
* CN(C)S(=O)(=O)c1csc(C(=O)N2CCSCC2)c1 | Mtb cholesterol medium: 1.69%; Mtb glucose medium: 18.39%
* O=C(c1cc[nH]n1)N1CCc2cc(Br)sc2C1 | Mtb cholesterol medium: -9.864% & -22.58%; Mtb glucose medium: -27.54%
* CN1CCN(C(=O)c2cccs2)Cc2ccccc21 | Mtb cholesterol medium: 13.41%; Mtb glucose medium: 7.333%
* CC(C)(C)S(=O)(=O)c1ccc(N2CCN(c3ccccn3)CC2)nn1 | Mtb cholesterol medium: -0.05481%; Mtb glucose medium: -0.3268% & 16.03%
* CSCC(=O)NC(Cc1ccc(C)cc1)c1ccccn1 (centres unmarked) | Mtb cholesterol medium: 7.428% & -2.141%; Mtb glucose medium: 24.76%
* Cc1cccc(NC(=O)N2Cc3c(CN(C)C)nn(C)c3C2)c1 | Mtb cholesterol medium: 5.658%; Mtb glucose medium: -1.094% & -27.01%
* CN(C)CC(=O)N1CCOC2(CCCN(c3ncccc3F)C2)C1.O=C(O)C(F)(F)F.O=C(O)C(F)(F)F (centres unmarked) | Mtb cholesterol medium: 10.04% & 19.06%; Mtb glucose medium: 15.33%
* CCC1CN(Cc2nc(C(C)C)no2)CCC(=O)N1Cc1ccccc1 (centres unmarked) | Mtb cholesterol medium: 13.88%; Mtb glucose medium: -1.325%
* O=C(c1ccc(Cl)o1)N1CCCN(Cc2cscn2)CC1 | Mtb cholesterol medium: -5.198%; Mtb glucose medium: 12.64%
* CNc1nc2c(s1)C(=O)CN(C(=O)NCCc1ccccc1)C2 | Mtb cholesterol medium: -21.36%; Mtb glucose medium: -40.13%
* Cc1nc(C(C)NC(=O)c2cn(C/C=C/c3ccccc3)nn2)n[nH]1 (centres unmarked) | Mtb cholesterol medium: -2.259%; Mtb glucose medium: -26.18% & -5.027%
* c1cc(CN2CCC(c3ccnc4nccn34)C2)ccn1 (centres unmarked) | Mtb cholesterol medium: -2.732% & 2.105%; Mtb glucose medium: -12.98%
* Cc1cc(NC(=O)NCC(O)COc2ccccc2)n(C)n1 (centres unmarked) | Mtb cholesterol medium: -8.972%; Mtb glucose medium: -21.04%
* Cc1nc(Nc2ccccn2)cc(N2CCN(S(C)(=O)=O)CC2)n1 | Mtb cholesterol medium: 0.01142%; Mtb glucose medium: 33.18% & -4.614%

Some entries from above, unchanged:

SMILES,Mtb cholesterol medium,Mtb glucose medium
O=C(c1ccc(Cl)o1)N1CCCN(Cc2cscn2)CC1,-5.198,12.64
CNc1nc2c(s1)C(=O)CN(C(=O)NCCc1ccccc1)C2,-21.36,-40.13
c1cc(CN2CCC(c3ccnc4nccn34)C2)ccn1 (centres unmarked),-2.732 & 2.105,-12.98

Source: ChEMBL document CHEMBL3988442, “University of Dundee, Small-Polar-MMV Screening Library” (2021).